Results on 46 compounds are retold here after PubChem BioAssay AID1487 (National Center for Advancing Translational Sciences (NCATS), 2009).

The nature of the test: qHTS Assay for Modulators of Lamin A Splicing. As to conditions: HeLa LMNA splicing GFP/RFP minigene ratio, 48 h. A digest of the protocol: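 Read-out is the ratio of GFP to DsRed2 object intensity, acquired by 488 nm laser-scanning cytometry on HeLa lamin A-EGFP minigene reporter cells. Compound incubation 48 hrs at 37 °C in Opti-MEM with 2% FBS; DMSO 0.5% final.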
For orientation: qHTS replaces the single test concentration by a dilution series.

Where [1] appears, read: measured here: GFP splicing reporter channel.
Where [2] appears, read: measured here: RFP viability control channel.

“And” between values parts separate entries of the source, which are not always exact repeats. Identical values can stand only once. The list shows a part of the results. The main result of the screen is listed elsewhere. These columns were measured beside it and carry no call. Most of these compounds were active or inconclusive in the main read-out, so they are no random draw. The note in brackets gives the kind of curve behind each potency; many fits are weak.

Usually AC50 stands for the concentration at which the activity in the assay is half-maximal. As for `C[N+]1(C)[C@@H]2CC[C@H]1CC(OC(=O)[C@@H](CO)c1ccccc1)C2` (some centres undefined), the half-maximal activity concentration (AC50) under setting [1] is 0.00112 µM [falling, full curve, poor fit].

As to `O=C(COc1ccccc1/C=C1/NC(=O)NC1=O)Nc1ccccc1`, the AC50 reads like this: under setting [1], 10 µM [rising, partial curve, poor fit]; under setting [2], 3.55 µM [rising, full curve].

`O=C(Nc1nc2ccccc2n1CCN1CCCC1)c1ccc(Cl)cc1`: the AC50 was 31.6 µM [rising, single point] under setting [1] and 20 µM [rising, single point] under setting [2].

`COc1cc(CN2CCCC(C(=O)c3sccc3C)C2)cc(Cl)c1O` (centres undefined): under setting [1], the half-maximal activity concentration (AC50) is 0.0316 µM [falling, full curve, poor fit].

Regarding `O=S(=O)(O)c1ccc(O)cc1`, the AC50 runs as follows: under setting [1], 35.5 µM [falling, single point]; under setting [2], 2.24 µM [falling, single point].

Take `CC(=O)OC(C)(C)/C=C/C(=O)[C@](C)(O)[C@H]1[C@H](O)C[C@@]2(C)[C@@H]3CC=C4[C@H](C[C@H](O)C(=O)C4(C)C)[C@]3(C)C(=O)C[C@]12C`: the AC50 reads like this: under setting [1], 0.158 µM [falling, full curve]; under setting [2], 0.2 µM [falling, full curve].

`COc1ccc(/C=C2/Sc3ccc(C(=O)N4CCc5ccccc5C4)cc3NC2=O)cc1`: the AC50 under setting [2] is 31.6 µM [rising, single point].

Turning to `C=CCN1CC[C@]23c4c5ccc(O)c4O[C@H]2/C(=N/NC(=O)c2ccccc2)CC[C@@]3(O)[C@H]1C5`, the AC50 is 5.62 µM [falling, partial curve, poor fit] under setting [1] and 5.62 µM [falling, single point] under setting [2].

As for `CC(C)CN1CCN(Cc2ccccc2C(F)(F)F)CC1CCO` (centres undefined), under setting [1], the concentration at half-maximal activity (AC50) is 15.8 µM [falling, single point].

For `N#CN`, the half-maximal activity concentration (AC50) by setting is: under setting [1], 14.1 µM [rising, partial curve]; under setting [2], 0.000891 µM [rising, full curve, poor fit].

Regarding `CNC1(c2ccccc2Cl)CCCCC1=O` (centres undefined), the AC50 under setting [1] is 35.5 µM [rising, partial curve, poor fit] and the AC50 under setting [2] is 35.5 µM [rising, single point].

For the compound `CC(C)CC(N(C)C)C1(c2ccc(Cl)cc2)CCC1` (centres undefined), the AC50 is 0.02 µM [falling, full curve, poor fit] under setting [1] and 0.794 µM [rising, single point] under setting [2].

As to `Cc1nc2ccccc2n1C1CCN(Cc2nnnn2CCc2ccccc2)CC1`, the AC50 under setting [2] is 7.08 µM [rising, single point].

For the compound `Cc1ccc(N=CN(C)C=Nc2ccc(C)cc2C)c(C)c1`, the half-maximal activity concentration (AC50) by setting is: under setting [1], 0.00141 µM [rising, full curve, poor fit]; under setting [2], 0.000891 µM [rising, full curve, poor fit].

Turning to `CC(NC1=NCCS1)c1ccccc1` (centres undefined), the AC50 under setting [2] is 25.1 µM [falling, partial curve, poor fit].

Take `COC(=O)C(O)(c1ccc(NC(=S)NC(=O)c2ccc(Cl)cc2Cl)c(C)c1)C(F)(F)F` (centres undefined): the half-maximal activity concentration (AC50) runs as follows: under setting [1], 10 µM [rising, partial curve]; under setting [2], 11.2 µM [rising, partial curve].

As to `CCc1ccc(C(=O)NCc2ccc(Cl)cc2Cl)cc1`, the half-maximal activity concentration (AC50) runs as follows: under setting [1], 12.6 µM [rising, single point]; under setting [2], 25.1 µM [rising, single point].

Turning to `COc1ccc(CC2c3cc(OC)c(OC)cc3CCN2C)cc1OC` (centres undefined), the AC50 under setting [2] was 0.0178 µM [rising, full curve, poor fit].

Regarding `CC(C)CCCC(C)C1CCC2C3CC(=O)[C@H]4CC(O)CC[C@]4(C)C3CC[C@@]12C` (some centres undefined), the AC50 under setting [1] is 22.4 µM [falling, single point] and the concentration at half-maximal activity (AC50) under setting [2] is 22.4 µM [falling, single point].

For `O=Cc1cn(Cc2ccc([N+](=O)[O-])cc2)c2ccccc12`, the AC50 under setting [1] was 31.6 µM [rising, single point].

For `CC(C)n1c(/C=C\[C@@H](O)C[C@@H](O)CC(=O)O)c(-c2ccc(F)cc2)c2ccccc21`, the AC50 was 1.26 µM [falling, partial curve, poor fit] under setting [1] and 2.24 µM [falling, partial curve] under setting [2].

For `Nc1ccc(C2(c3ccc(N)cc3)c3ccccc3-c3ccccc32)cc1`, the half-maximal activity concentration (AC50) reads like this: under setting [1], 15.8 µM [rising, partial curve]; under setting [2], 14.1 µM [rising, partial curve].

`CCc1ccccc1N1C(=O)/C(=C/c2ccc(N3CCN(C)CC3)o2)C(=O)NC1=S`: the half-maximal activity concentration (AC50) under setting [1] was 35.5 µM [falling, single point] and the half-maximal activity concentration (AC50) under setting [2] is 35.5 µM [falling, single point].

As to `CC(=O)OC1CC[C@@]2(C)C3CC(=O)[C@]4(C)C(C(C)=O)=CCC4C3CC[C@H]2C1` (some centres undefined), the concentration at half-maximal activity (AC50) is, setting by setting: under setting [1], 25.1 µM [falling, single point]; under setting [2], 12.6 µM [falling, partial curve].

In the case of `CC[C@H](CO)Nc1nc(NCc2ccccc2)c2ncn(C(C)C)c2n1`, the AC50 was 25.1 µM [falling, partial curve, poor fit] under setting [1] and 22.4 µM [falling, partial curve, poor fit] under setting [2].

With `Cc1ccc(NC(=O)N(Cc2ccc3c(c2)OCO3)C2CCN(Cc3ccccc3)CC2)cc1Cl`, the AC50 under setting [1] was 14.1 µM [rising, single point] and the half-maximal activity concentration (AC50) under setting [2] was 11.2 µM [rising, single point].

Consider `Cc1ccccc1-n1c(O)c(/C=C/C=Nc2ccccc2)c(=O)[nH]c1=O`, for which the AC50 reads like this: under setting [1], 10 µM [falling, partial curve, poor fit]; under setting [2], 8.91 µM [falling, partial curve, poor fit].

For `COP(=S)(OC)Oc1ccc(SC)c(C)c1`, the concentration at half-maximal activity (AC50) under setting [1] is 0.0355 µM [rising, full curve].

For the compound `CN1C2CCC1/C(=C/c1ccccn1)C(=O)/C2=C\c1ccccn1`, the half-maximal activity concentration (AC50) under setting [1] was 0.891 µM [rising, partial curve].

As to `ClC(Cl)Cl`, the AC50 is 35.5 µM [falling, single point] under setting [1] and 28.2 µM [falling, single point] under setting [2].

With `C[N+](C)(C)CC(=O)O`, the half-maximal activity concentration (AC50) runs as follows: under setting [1], 0.0316 µM [rising, full curve, poor fit]; under setting [2], 0.0316 µM [rising, full curve, poor fit].

On to `O=c1[nH]c2ccccc2n1CCCN1CCC(n2c(=O)[nH]c3cc(Cl)ccc32)CC1`, for which the AC50 by setting is: under setting [1], 39.8 nM [falling, full curve, poor fit] and 6.31 µM [falling, partial curve, poor fit] and 35.5 µM [falling, single point]; under setting [2], 5.62 µM [falling, single point] and 25.1 µM [rising, single point].

As for `CC(C)=CCCC(C)C1CC[C@@]2(C)C3=C(CC[C@@]12C)C1(C)CCC(O)C(C)(C)C1CC3` (some centres undefined), the concentration at half-maximal activity (AC50) is 31.6 µM [rising, single point] under setting [1] and 31.6 µM [rising, single point] under setting [2].

Take `CCOC(=O)c1ccc(NC(=O)c2c(O)[nH]c(=O)[nH]c2=O)cc1`: the AC50 was 2.82 µM [falling, full curve] under setting [1] and 2.82 µM [falling, full curve] under setting [2].

With `CCCCn1c(=O)c(C(=O)Nc2nnc(C(C)C)s2)c(O)c2ccccc21`, under setting [2], the AC50 was 6.31 µM [falling, partial curve, poor fit].

With `COc1cc2c(cc1OC)[C@@H]1C(=O)c3ccc4c(c3OC1CO2)CC(C(C)C)O4` (some centres undefined), the concentration at half-maximal activity (AC50) is, setting by setting: under setting [1], 11.2 µM [falling, single point]; under setting [2], 15.8 µM [falling, single point].

As to `C[C@@H]1O[C@@H](O[C@H]2C[C@@H](O)[C@]3(CO)[C@H]4[C@H](O)C[C@]5(C)[C@@H](C6COC(=O)C6)CC[C@]5(O)[C@@H]4CC[C@]3(O)C2)[C@H](O)[C@H](O)[C@H]1O` (some centres undefined), the AC50 reads like this: under setting [1], 0.282 µM [falling, full curve, poor fit]; under setting [2], 3.98 µM [rising, full curve].

With `COc1ccc2c(c1)C13CCCCC1C(C2)N(C)CC3` (centres undefined), the AC50 under setting [1] is 6.31 µM [falling, partial curve, poor fit].

For `CC(C)[N+](C)(CCC(C(N)=O)(c1ccccc1)c1ccccc1)C(C)C`, the AC50 runs as follows: under setting [1], 4.47 µM [falling, partial curve, poor fit]; under setting [2], 3.55 µM [falling, single point].

Take `O=C(CN1CC=C(c2ccccc2)CC1)Nc1c(Cl)cccc1Cl`: the AC50 is 11.2 µM [rising, single point] under setting [1] and 15.8 µM [rising, partial curve] under setting [2].

Take `CN1CCc2cc3c(cc2[C@@H]1[C@@H]1OC(=O)c2c1ccc1c2OCO1)OCO3`: the AC50 is 0.282 µM [falling, full curve] under setting [1] and 0.282 µM [falling, full curve] under setting [2].

With `O=C(O)CCn1cc(C=C2C(=O)NC(=O)NC2=O)c(-c2ccc(Br)cc2)n1`, the AC50 under setting [1] is 8.91 µM [rising, partial curve, poor fit] and the AC50 under setting [2] is 8.91 µM [rising, partial curve, poor fit].

Turning to `C#C[C@]1(O)CC[C@H]2[C@@H]3CCC4=CC(=O)CC[C@]4(C)[C@H]3CC[C@@]21C`, the AC50 reads like this: under setting [1], 31.6 µM [falling, partial curve, poor fit]; under setting [2], 0.00447 µM [falling, full curve, poor fit].

As to `COc1ccc2c(c1)CCC1C2CC[C@@]2(C)C(O)CCC12` (some centres undefined), the AC50 is 20 µM [rising, single point] under setting [1] and 17.8 µM [rising, single point] under setting [2].

As for `COc1cccc(C(=O)C2CCCN(Cc3cccc4c3OCO4)C2)c1` (centres undefined), the AC50 under setting [2] is 0.0708 µM [rising, full curve, poor fit].

`O=C1C2CCCN2C(c2cccs2)N1c1ccc(Cl)cc1` (centres undefined): the AC50 is 1.26 µM [falling, full curve] under setting [1] and 1.12 µM [falling, full curve] under setting [2].
